# Counter-ions that a name gives are not always drawn. The list shows a part of the results. Repeats are few or missing, and single values can be far off.
# Assays:
# [1] = tested on: Caenorhabditis elegans ST65 (ncIs13[ajm-1::GFP]); experiment: 'Larvae/adult' ratio (MetaXpress pharynx counts; minimum value 1, so it appears to include adults; growth inhibition read-out); conditions: 10 µM; exposure time: 4-5 days from L1 at 20°C
# [2] = tested on: Caenorhabditis elegans ST65 (ncIs13[ajm-1::GFP]); experiment: vulvae per adult worm (MAPK/ERK-dependent vulval induction, MetaXpress) (vulvae/adult); higher = more vulval induction (less MAPK/ERK inhibition); conditions: 10 µM; exposure time: 4-5 days from L1 at 20°C
Compound,'Larvae/adult' ratio [1],vulvae per adult worm [2]
CS(=O)(=O)N1CCN(Cc2cc3nc(-c4cccc5[nH]ncc45)nc(N4CCOCC4)c3s2)CC1 [Pictilisib (GDC-0941)],1.83,0.979
Nc1cc(F)ccc1NC(=O)/C=C/c1cnn(C/C=C/c2ccccc2)c1,1.57,0.955
CC(C)c1cc(-c2n[nH]c(=O)n2-c2ccc3c(ccn3C)c2)c(O)cc1O [Ganetespib (STA-9090)],1.45,0.909
CNC(=O)CN1CCC(Oc2cc3c(Nc4cccc(Cl)c4F)ncnc3cc2OC)CC1 [Sapitinib (AZD8931)],1.7,0.919
CNC(=O)c1ccc(N2C(=S)N(c3cnc(C#N)c(C(F)(F)F)c3)C(=O)C23CCC3)cc1F,2.17,0.833
Cc1cn(-c2cc(NC(=O)c3ccc(C)c(Nc4nccc(-c5cnccn5)n4)c3)cc(C(F)(F)F)c2)cn1 [Radotinib],1.93,1
N#Cc1ccc(C(c2ccc(C#N)cc2)n2cncn2)cc1 [Letrozole],2.43,1.61
Nc1ccccc1NC(=O)c1ccc(CNc2nccc(-c3cccnc3)n2)cc1 [Mocetinostat (MGCD0103)],1.59,1.06
C=C(c1ccc(C(=O)O)cc1)c1cc2c(cc1C)C(C)(C)CCC2(C)C [Bexarotene],1.75,1.08
O=C(/C=C/c1cccc(S(=O)(=O)Nc2ccccc2)c1)NO [Belinostat (PXD101)],1.89,0.889
C[C@H](Nc1ncnc2[nH]cnc12)c1cc2ccc(F)cc2nc1-c1ccccn1,3.81,1.75
O=C(O)C(=O)O.[NH-][C@@H]1CCCC[C@H]1[NH-].[Pt+2] [Oxaliplatin],2.27,0.6
O=C(Nc1nc2cccc(-c3ccc(CN4CCS(=O)(=O)CC4)cc3)n2n1)C1CC1 [Filgotinib (GLPG0634)],2.17,1.08
CS(=O)(=O)CCNCc1ccc(-c2ccc3ncnc(Nc4ccc(OCc5cccc(F)c5)c(Cl)c4)c3c2)o1 [Lapatinib],3.2,1.2
CN(CC(=O)N(Cc1ccc(C2CCCCC2)cc1)c1ccc(C(=O)O)cc1)S(=O)(=O)c1c(F)c(F)c(F)c(F)c1F,2,0.878
O=C1CCC(N2C(=O)c3ccccc3C2=O)C(=O)N1 (configuration not stated) [Thalidomide],2.23,1.17
CO[C@H]1C[C@@H]2CC[C@@H](C)[C@@](O)(O2)C(=O)C(=O)N2CCCC[C@H]2C(=O)O[C@H]([C@H](C)C[C@@H]2CC[C@@H](OCCO)[C@H](OC)C2)CC(=O)[C@H](C)/C=C(\C)[C@@H](O)[C@@H](OC)C(=O)[C@H](C)C[C@H](C)/C=C/C=C/C=C/1C [Everolimus (RAD001)],2,0.833
Nc1cc(F)ccc1NC(=O)c1ccc(CNC(=O)/C=C/c2cccnc2)cc1 [Tucidinostat (Chidamide)],2.45,0.864
"CO[C@H]1C[C@@H]2CC[C@@H](C)[C@@](O)(O2)C(=O)C(=O)N2CCCC[C@H]2C(=O)O[C@H]([C@H](C)C[C@@H]2CC[C@@H](OP(C)(C)=O)[C@H](OC)C2)CC(=O)[C@H](C)/C=C(\C)[C@@H](O)[C@@H](OC)C(=O)[C@H](C)C[C@H](C)/C=C/C=C/C=C/1C [Ridaforolimus (Deforolimus, MK-8669)]",2.83,1.02
S=c1[nH]cnc2nc[nH]c12 [Mercaptopurine (6-MP)],1.57,0.776
Nc1ncn([C@H]2C[C@H](O)[C@@H](CO)O2)c(=O)n1 [Decitabine],2.06,0.848

# Part of the list above, reformatted.
Compound	'Larvae/adult' ratio [1]	vulvae per adult worm [2]
Cc1cn(-c2cc(NC(=O)c3ccc(C)c(Nc4nccc(-c5cnccn5)n4)c3)cc(C(F)(F)F)c2)cn1 [Radotinib]	1.93	1
O=C(O)C(=O)O.[NH-][C@@H]1CCCC[C@H]1[NH-].[Pt+2] [Oxaliplatin]	2.27	0.6

# Later entries:

Compound,'Larvae/adult' ratio [1],vulvae per adult worm [2]
CC(C)(C#N)c1cc(Cn2cncn2)cc(C(C)(C)C#N)c1 [Anastrozole],1.56,0.969
O=C(NC1CCNCC1)c1n[nH]cc1NC(=O)c1c(Cl)cccc1Cl,2.09,0.914
COc1cc2c(NC3CCN(C(C)C)CC3)nc(N3CCC(F)(F)CC3)nc2cc1OCCCN1CCCC1,2.11,0.857
C[C@H]1CNCCCN1S(=O)(=O)c1cccc2cncc(F)c12 [Ripasudil (K-115) hydrochloride dihydrate],2.33,1.09
CC(C)(C)C[C@@H]1N[C@@H](C(=O)N[C@H]2CC[C@H](O)CC2)[C@H](c2cccc(Cl)c2F)[C@]12C(=O)Nc1cc(Cl)ccc12,1.5,1.25
O=C(Nc1cc(Cl)cc2c1[nH]c1cnccc12)c1cccnc1,1.94,0.613
N#Cc1ccc2[nH]c(O)c(-c3ccc(CN4CCOCC4)cn3)c2c1,1.98,0.882
Cc1nc(NC(=O)N2CCC[C@H]2C(N)=O)sc1-c1ccnc(C(C)(C)C(F)(F)F)c1 [Alpelisib (BYL719)],1.8,1
C[C@]12CC[C@@H]3c4ccc(O)cc4C[C@@H](CCCCCCCCC[S+]([O-])CCCC(F)(F)C(F)(F)F)[C@H]3[C@@H]1CC[C@@H]2O (some centres not stated) [Fulvestrant],1.81,0.767
COc1cccc2c1C(=O)c1c(O)c3c(c(O)c1C2=O)CC(O)(C(=O)CO)CC3OC1CC(N)C(O)C(C)O1 (configuration not stated) [Doxorubicin (Adriamycin) HCl],2.11,1.19
COc1cc2c(Oc3ccc4[nH]c(C)cc4c3F)ncnc2cc1OCCCN1CCCC1 [Cediranib (AZD2171)],1.68,0.951
COc1cc2c(cc1OCCCN1CCCC1)N=C(N)C21CCC1,1.62,1.06
C[C@H]1O[C@@H](O[C@H]2[C@@H](O)C[C@H](O[C@H]3[C@@H](O)C[C@H](O[C@H]4CC[C@@]5(C)[C@H](CC[C@@H]6[C@@H]5C[C@@H](O)[C@]5(C)[C@@H](C7=CC(=O)OC7)CC[C@]65O)C4)O[C@@H]3C)O[C@@H]2C)C[C@H](O)[C@@H]1O [Digoxin],1.29,1
CCCCCCCCc1ccc(CCC(N)(CO)CO)cc1 [Fingolimod (FTY720) HCl],2,1
Cc1cc(C(C)Nc2ccccc2)c2nc(N3CCOCC3)cc(=O)n2c1 (configuration not stated),1.81,0.511
CNC(=O)c1nn(C)c2c1C(C)(C)Cc1cnc(Nc3ccc(N4CCN(C)CC4)cc3)nc1-2,4.91,0.818
C[C@@H]1COC(Nc2ccc3ncnc(Nc4ccc(OCc5nccs5)c(Cl)c4)c3c2)=N1 [Varlitinib],1.9,0.452
COc1cc(OC2CCN(C)CC2)ccc1Nc1ncc2c(n1)n(C1CCCC1)c(=O)n2C,4.18,0.727
COc1cc(Nc2c(C#N)cnc3cc(OCCCN4CCN(C)CC4)c(OC)cc23)c(Cl)cc1Cl [Bosutinib (SKI-606)],2.45,0.818
"C=CC(=O)Nc1cccc(Nc2nc(Nc3ccc(N4CCN(C(C)=O)CC4)cc3OC)ncc2C(F)(F)F)c1 [Rociletinib (CO-1686, AVL-301)]",1.6,0.771
COc1cc2nccc(Oc3ccc(NC(=O)Nc4cc(C)on4)c(Cl)c3)c2cc1OC [Tivozanib (AV-951)],1.97,0.759

Compound,'Larvae/adult' ratio [1],vulvae per adult worm [2]
CCN(CC)CCCC(C)Nc1ccnc2cc(Cl)ccc12 (configuration not stated) [Chloroquine Phosphate],2,0.95
C[C@@H](Nc1cc(F)cc(F)c1)c1cc(C(=O)N(C)C)cc2c(=O)cc(N3CCOCC3)oc12,2.04,0.889
CC(C)(C)c1cnc(CSc2cnc(NC(=O)C3CCNCC3)s2)o1,1.71,0.714
CCCCCCCCCCCCCCCCOP(=O)([O-])OCC[N+](C)(C)C [Miltefosine],2.33,0.59
CO[C@@]12[C@H](COC(N)=O)C3=C(C(=O)C(C)=C(N)C3=O)N1C[C@@H]1N[C@@H]12 [Mitomycin C],1.78,0.216
CCc1nc(C(N)=O)c(Nc2ccc(N3CCC(N4CCN(C)CC4)CC3)c(OC)c2)nc1NC1CCOCC1 [Gilteritinib (ASP2215)],2.17,0.966
Cc1[nH]nc(C(F)(F)F)c1Cc1sc2c(c1C(=O)N1C[C@](C)(O)CO1)c(=O)n(C)c(=O)n2C(C)C,2.59,0.923
CN(C)C(=N)NC(=N)N [Metformin HCl],1.44,1
N[C@@H]1CCCN(c2c(/C=C3\SC(=O)NC3=O)cccc2-c2ccccc2)C1,2.17,1
COc1cc(OC)cc(N(CCNC(C)C)c2ccc3ncc(-c4cnn(C)c4)nc3c2)c1,4.5,1
"C[C@H](Nc1ncnc2nc[nH]c12)c1cc2cccc(Cl)c2c(=O)n1-c1ccccc1 [Duvelisib (IPI-145, INK1197)]",2.41,0.864
Cc1cc(Nc2cc(CN3CCOCC3)c3nc(C)c(Cc4ccc(Cl)cc4F)n3n2)n[nH]1,2.23,0.962
COc1cc(N2CCN(C)CC2)ccc1Nc1nccc(-c2cn(C)c3cnccc23)n1,1.49,0.122
O=C(O)CC1CC(c2ccccc2)=NO1 (configuration not stated),1.58,1.17
CN(C)CCOc1ccc(/C(=C(/CCCl)c2ccccc2)c2ccccc2)cc1 [Toremifene Citrate],2.3,1.3
COc1cc(C(=O)O)ccc1NC(=O)[C@@H]1N[C@@H](CC(C)(C)C)[C@](C#N)(c2ccc(Cl)cc2F)[C@H]1c1cccc(Cl)c1F [Idasanutlin (RG-7388)],1.68,0.865
FC(F)c1nc2ccccc2n1-c1nc(N2CCOCC2)nc(N2CCOCC2)n1,2.13,0.957
O=C(O)C1(C(=O)O)CCC1.[NH2-].[NH2-].[Pt+2] [Carboplatin],1.77,0.857
CC[C@]1(O)C[C@H]2CN(CCc3c([nH]c4ccccc34)[C@@](C(=O)OC)(c3cc4c(cc3OC)N(C=O)[C@H]3[C@@](O)(C(=O)OC)[C@H](OC(C)=O)[C@]5(CC)C=CCN6CC[C@]43[C@@H]65)C2)C1 [Vincristine sulfate],2.67,1.05

# For reference, 12 of the compounds above.
Compound,'Larvae/adult' ratio [1],vulvae per adult worm [2]
CCN(CC)CCCC(C)Nc1ccnc2cc(Cl)ccc12 (configuration not stated) [Chloroquine Phosphate],2,0.95
C[C@@H](Nc1cc(F)cc(F)c1)c1cc(C(=O)N(C)C)cc2c(=O)cc(N3CCOCC3)oc12,2.04,0.889
CC(C)(C)c1cnc(CSc2cnc(NC(=O)C3CCNCC3)s2)o1,1.71,0.714
CCCCCCCCCCCCCCCCOP(=O)([O-])OCC[N+](C)(C)C [Miltefosine],2.33,0.59
CO[C@@]12[C@H](COC(N)=O)C3=C(C(=O)C(C)=C(N)C3=O)N1C[C@@H]1N[C@@H]12 [Mitomycin C],1.78,0.216
CCc1nc(C(N)=O)c(Nc2ccc(N3CCC(N4CCN(C)CC4)CC3)c(OC)c2)nc1NC1CCOCC1 [Gilteritinib (ASP2215)],2.17,0.966
Cc1[nH]nc(C(F)(F)F)c1Cc1sc2c(c1C(=O)N1C[C@](C)(O)CO1)c(=O)n(C)c(=O)n2C(C)C,2.59,0.923
CN(C)C(=N)NC(=N)N [Metformin HCl],1.44,1
N[C@@H]1CCCN(c2c(/C=C3\SC(=O)NC3=O)cccc2-c2ccccc2)C1,2.17,1
COc1cc(OC)cc(N(CCNC(C)C)c2ccc3ncc(-c4cnn(C)c4)nc3c2)c1,4.5,1
"C[C@H](Nc1ncnc2nc[nH]c12)c1cc2cccc(Cl)c2c(=O)n1-c1ccccc1 [Duvelisib (IPI-145, INK1197)]",2.41,0.864
Cc1cc(Nc2cc(CN3CCOCC3)c3nc(C)c(Cc4ccc(Cl)cc4F)n3n2)n[nH]1,2.23,0.962
